According to patent US8030443B2, “Squamous cell carcinoma antigen-derived peptide binding to HLA-A24 molecule” (Kurume University, priority 2005, dated 2011):
Part of at least one peptide drawing is inferred or uncertain, most often the ends. Residues, ends and D or L forms follow the SMILES beside them.

Test system: PBMCs from HLA-A24^+ cancer patients and HDs
Assay: Induction of peptide-specific CTLs from PBMCs, IFN-γ ELISA against peptide-pulsed C1R-A24 cells
Assay type: cell-based, human
Conditions: for Total: healthy donors with induction of peptide-specific CTLs / donors tested: 8 HLA-A24^+ healthy donors; for Total: healthy donors with induction of peptide-specific CTLs / donors tested / Total: cancer patients with induction of peptide-specific CTLs / patients tested: positive when more than 50 pg/ml IFN-γ with p<0.05; for Total: cancer patients with induction of peptide-specific CTLs / patients tested: 20 HLA-A24^+ cancer patients; for IFN-γ Production: HIV peptide background subtracted, only significant values shown, — otherwise
Method: PBMCs from HLA-A24^+ cancer patients and HDs were used for the CTL induction assay. For the induction of peptide-specific CTLs, PBMCs (1.5×10^5 cells/well) were incubated with 10 μg/ml of each peptide in four different wells of a 96-well microculture plate (Nunc) in 200 μl of culture medium containing interleukin (IL)-2, as reported previously (Non-Patent Literature 18). Every 3 or 4 days, half the culture medium was removed and replaced with new medium containing the corresponding peptide (20 μg/ml) and 100 U/ml IL-2. On the 14th day, the cells from each well were independently harvested, washed, separated into four wells, and tested for their ability to produce interferon (IFN)-γ in response to C1R-A24 cells pulsed with a corresponding peptide or a negative control HIV peptide in the duplicate assays. C1R-A24 is an HLA-A2402-expressing subline of C1R lymphoma (Dr. M. Takiguchi, Kumamoto University, Japan). After an 18-h incubation of C1RA-24, the supernatant was collected, and the level of IFN-γ was determined by ELISA.
Whether or not the SCCA107, SCCA112, SCCA215, and SCCA286 peptides had the potential to induce peptide-specific CTLs from the PBMCs of 20 HLA-A24^+ cancer patients and 8 HLA-A24^+ healthy donors was investigated. The group of twenty cancer patients consisted of 4 esophageal SCC patients, 4 cervical SCC patients, 4 lung cancer patients (2 adenocarcinomas, one small cell carcinoma, and one squamous cell carcinoma), 4 gastric adenocarcinoma patients, and 4 colon adenocarcinoma patients. The assay was carried out in quadruplicate. The cultured cells in one well were separated into 4 wells, and two wells were used for the SCCA peptide-pulsed C1R-A24 cells, and the other two were used for the HIV peptide-pulsed C1R-A24 cells.

[1] = PBMCs of HLA-A24^+ patient 2, Esophagus
[2] = PBMCs of HLA-A24^+ patient 5, Cervix of uterus
[3] = PBMCs of HLA-A24^+ patient 8, Cervix of uterus
[4] = PBMCs of HLA-A24^+ patient 10, Lung (adeno)
[5] = PBMCs of HLA-A24^+ patient 11, Lung (SCC)
[6] = PBMCs of HLA-A24^+ patient 15, Stomach
[7] = PBMCs of HLA-A24^+ patient 18, Colon
[8] = PBMCs of HLA-A24^+ patient 19, Colon
[9] = PBMCs of HLA-A24^+ patient 20, Colon

| SMILES | Total: healthy donors with induction of peptide-specific CTLs / donors tested | Total: cancer patients with induction of peptide-specific CTLs / patients tested | Total: cancer patients with induction of peptide-specific CTLs / patients tested (listed as SCCA112) | IFN-γ Production (PBMCs of HLA-A24^+ healthy donor 5) [pg/mL] | IFN-γ Production [1] [pg/mL] | IFN-γ Production [2] [pg/mL] | IFN-γ Production [3] [pg/mL] | IFN-γ Production (PBMCs of HLA-A24^+ patient 9, Lung (small cell)) [pg/mL] | IFN-γ Production [4] [pg/mL] | IFN-γ Production [5] [pg/mL] | IFN-γ Production (PBMCs of HLA-A24^+ patient 12, Lung (adeno)) [pg/mL] | IFN-γ Production (PBMCs of HLA-A24^+ patient 13, Stomach) [pg/mL] | IFN-γ Production [6] [pg/mL] | IFN-γ Production [7] [pg/mL] | IFN-γ Production [8] [pg/mL] | IFN-γ Production [9] [pg/mL] | Total: cancer patients with induction of peptide-specific CTLs / patients tested (listed as SCCA215) | IFN-γ Production (PBMCs of HLA-A24^+ patient 6, Cervix of uterus) [pg/mL] | IFN-γ Production (PBMCs of HLA-A24^+ patient 7, Cervix of uterus) [pg/mL] | IFN-γ Production (PBMCs of HLA-A24^+ patient 14, Stomach) [pg/mL] |
| --- | --- | --- | --- | --- | --- | --- | --- | --- | --- | --- | --- | --- | --- | --- | --- | --- | --- | --- | --- | --- |
| CC(C)C[C@H](NC(=O)[C@H](Cc1ccc(O)cc1)NC(=O)[C@H](CCC(=O)O)NC(=O)[C@H](CCC(N)=O)NC(=O)[C@H](CC(C)C)NC(=O)[C@H](Cc1ccccc1)NC(=O)[C@H](CC(C)C)NC(=O)[C@H](Cc1ccc(O)cc1)NC(=O)[C@@H](N)[C@@H](C)O)C(=O)O [SCCA 112, TYLFLQEYL] (H-TYLFLQEYL-OH) | 1/8 | 12/20 | 12 of 20 | 1239 | 106 | 678 | 61 | 321 | 837 | 75 | 319 | 148 | 958 | 171 | 115 | 430 | – | – | – | – |
| CC(C)C[C@H](NC(=O)[C@H](CO)NC(=O)[C@H](C)NC(=O)[C@H](Cc1ccccc1)NC(=O)[C@H](Cc1c[nH]cn1)NC(=O)[C@H](Cc1ccccc1)NC(=O)[C@H](CO)NC(=O)[C@@H](NC(=O)[C@H](Cc1ccc(O)cc1)NC(=O)[C@@H](N)CCC(N)=O)[C@@H](C)O)C(=O)O [SCCA 215, QYTSFHFASL] (H-QYTSFHFASL-OH) | 0/8 | 12/20 | – | – | 85 | 117 | 541 | – | 362 | 83 | – | – | 340 | 121 | 371 | 118 | 12 of 20 | 96 | 210 | 129 |
